Measurements as given in patent publication US20150051227A1, “PREDICTIVE BIOMARKER USEFUL FOR CANCER THERAPY MEDIATED BY A CDK INHIBITOR” (Merck Sharp & Dohme Corp., priority 2012, published 2015).
Where two headings read alike, the source gives them in different places.

Experiments:
more than 140 cell lines = test: cells; settings: 72 h
[1] = tested on: Millipore panel of 50 diverse kinases; settings: cited from earlier work
511 tumor cell lines = test: cells; settings: read-out: EC50 (50% growth inhibition)

Question: Which IC50 (more than 140 cell lines) does the source give for CCc1cnn2c(NCc3ccc[n+]([O-])c3)cc(N3CCCC[C@H]3CCO)nc12 [SCH 727965 (Dinaciclib)] here?
Answer: ≤ 25 nM

Question: And the IC50 [1]?
Answer: > 10000 nM

Question: And the EC50 (511 tumor cell lines; 96 h)?
Answer: < 20 nM

Question: And the EC50 (511 tumor cell lines)?
Answer: 5 to 45 nM
